PubChem BioAssay AID1053208, Peter MacCallum Cancer Centre | 2014
Purpose: 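Synthetic lethal interactions between gene loss and doxorubicin in osteosarcoma cells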 (primary screen). Cell system: mouse osteosarcoma cells, early-passage culture from an engineered mouse model of fibroblastic bone tumour. Knock-down reagent: siRNA pool against mouse genes, 40 nM. Duration: about 120 h (48 h before drug, then 72 h with drug). Conditions: doxorubicin 100 nM for 72 h, roughly 30-40% inhibitory dose. Measurement: 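Viability read as ATP luminescence after 72 h of 100 nM doxorubicin or none, duplicate wells averaged, scaled to non-targeting siRNA, then expressed as robust z-scores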. Direction: viability z-score with doxorubicin: higher = more viable cells under doxorubicin; viability z-score without drug: higher = more viable cells with knock-down alone. Active means: 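Called active if knock-down leaves viability unchanged without drug (z within -2 to 2) but lowers it with doxorubicin (z at or under -2)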.
This is an unselected part of about 17,000 reagents. Over the whole deposit, 788 (4.7%) got an active call. 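Calls rest on z-score classes alone; an extra cut-off of viability at most 70% of control was not applied to them.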 Entries without a mark were called inactive. Not all columns of the deposit are shown. Reagent sequences are not shown.

Or8b12i: combined z-score class = low cell count with doxorubicin only (active); viability z-score with doxorubicin = -2.02; viability z-score without drug = -1.01
Slco1b2: combined z-score class = no change with or without drug; viability z-score with doxorubicin = 0.67; viability z-score without drug = -0.34
Abcf3: combined z-score class = no change with or without drug; viability z-score with doxorubicin = -0.45; viability z-score without drug = 0.51
Slc33a2: combined z-score class = no change with or without drug; viability z-score with doxorubicin = -1.12; viability z-score without drug = 1.01
Pank1: combined z-score class = no change with or without drug; viability z-score with doxorubicin = 0.9; viability z-score without drug = 0
Or5k1b: combined z-score class = no change with or without drug; viability z-score with doxorubicin = 0.11; viability z-score without drug = 1.69
Il34: combined z-score class = no change with or without drug; viability z-score with doxorubicin = 1.12; viability z-score without drug = 0.84
Cdca7: combined z-score class = low cell count with doxorubicin only (active); viability z-score with doxorubicin = -2.36; viability z-score without drug = -0.84
Cox8a: combined z-score class = no change with or without drug; viability z-score with doxorubicin = 0.11; viability z-score without drug = -0.34
Or8b3b: combined z-score class = no change with or without drug; viability z-score with doxorubicin = 0.11; viability z-score without drug = 0.34
Tsc22d4: combined z-score class = no change with or without drug; viability z-score with doxorubicin = 0.34; viability z-score without drug = -0.67
Tktl2: combined z-score class = no change with or without drug; viability z-score with doxorubicin = 0; viability z-score without drug = -0.67

Just “viability z-score without drug”, for 2 of the entries above:
Or8b12i: -1.01 (active)
Slco1b2: -0.34
